Source: publication PMC11178546
Read-outs that look alike come from different tables or passages of the source. Results are given in words; binding and its absence hold for the method and conditions named. In cells and extracts the contact can be indirect. Some entries that bind do so weakly or less than the wild type. One block for each molecule: values may come before it.

The chains behind the UniProt entries cited, without tags or fusion partners. Residues count along the entry.
UniProt P98194: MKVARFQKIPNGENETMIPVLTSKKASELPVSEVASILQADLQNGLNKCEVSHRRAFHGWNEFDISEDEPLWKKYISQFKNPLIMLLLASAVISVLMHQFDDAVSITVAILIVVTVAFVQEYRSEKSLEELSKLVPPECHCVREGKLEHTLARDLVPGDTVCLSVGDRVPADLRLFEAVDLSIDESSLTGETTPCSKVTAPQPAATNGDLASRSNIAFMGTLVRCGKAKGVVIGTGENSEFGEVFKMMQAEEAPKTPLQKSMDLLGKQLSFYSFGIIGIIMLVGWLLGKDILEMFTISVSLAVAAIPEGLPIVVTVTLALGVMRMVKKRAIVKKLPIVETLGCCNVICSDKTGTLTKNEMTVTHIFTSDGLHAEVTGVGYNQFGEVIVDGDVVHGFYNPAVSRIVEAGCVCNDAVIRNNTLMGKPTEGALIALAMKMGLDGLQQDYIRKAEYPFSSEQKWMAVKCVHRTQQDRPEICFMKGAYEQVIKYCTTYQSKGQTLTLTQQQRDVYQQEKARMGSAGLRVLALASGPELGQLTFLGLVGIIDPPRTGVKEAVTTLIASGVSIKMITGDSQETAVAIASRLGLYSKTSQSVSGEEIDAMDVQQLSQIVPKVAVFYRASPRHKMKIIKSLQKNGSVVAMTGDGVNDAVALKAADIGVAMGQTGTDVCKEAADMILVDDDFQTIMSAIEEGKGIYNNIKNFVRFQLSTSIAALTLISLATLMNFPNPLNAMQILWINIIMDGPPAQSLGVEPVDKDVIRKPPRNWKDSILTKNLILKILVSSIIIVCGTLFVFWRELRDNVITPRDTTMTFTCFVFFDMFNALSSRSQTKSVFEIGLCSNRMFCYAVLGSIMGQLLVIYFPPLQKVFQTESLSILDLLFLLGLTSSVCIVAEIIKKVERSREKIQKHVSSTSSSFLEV
UniProt Q9H4A6: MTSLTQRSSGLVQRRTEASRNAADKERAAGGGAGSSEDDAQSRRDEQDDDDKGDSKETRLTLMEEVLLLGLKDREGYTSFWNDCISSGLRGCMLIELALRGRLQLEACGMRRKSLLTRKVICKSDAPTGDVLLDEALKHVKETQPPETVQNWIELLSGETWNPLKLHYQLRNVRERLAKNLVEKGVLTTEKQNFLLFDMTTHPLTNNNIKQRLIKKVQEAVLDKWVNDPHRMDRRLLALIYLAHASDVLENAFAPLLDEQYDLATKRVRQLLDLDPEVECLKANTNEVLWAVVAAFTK
UniProt P05067, residues 18-770: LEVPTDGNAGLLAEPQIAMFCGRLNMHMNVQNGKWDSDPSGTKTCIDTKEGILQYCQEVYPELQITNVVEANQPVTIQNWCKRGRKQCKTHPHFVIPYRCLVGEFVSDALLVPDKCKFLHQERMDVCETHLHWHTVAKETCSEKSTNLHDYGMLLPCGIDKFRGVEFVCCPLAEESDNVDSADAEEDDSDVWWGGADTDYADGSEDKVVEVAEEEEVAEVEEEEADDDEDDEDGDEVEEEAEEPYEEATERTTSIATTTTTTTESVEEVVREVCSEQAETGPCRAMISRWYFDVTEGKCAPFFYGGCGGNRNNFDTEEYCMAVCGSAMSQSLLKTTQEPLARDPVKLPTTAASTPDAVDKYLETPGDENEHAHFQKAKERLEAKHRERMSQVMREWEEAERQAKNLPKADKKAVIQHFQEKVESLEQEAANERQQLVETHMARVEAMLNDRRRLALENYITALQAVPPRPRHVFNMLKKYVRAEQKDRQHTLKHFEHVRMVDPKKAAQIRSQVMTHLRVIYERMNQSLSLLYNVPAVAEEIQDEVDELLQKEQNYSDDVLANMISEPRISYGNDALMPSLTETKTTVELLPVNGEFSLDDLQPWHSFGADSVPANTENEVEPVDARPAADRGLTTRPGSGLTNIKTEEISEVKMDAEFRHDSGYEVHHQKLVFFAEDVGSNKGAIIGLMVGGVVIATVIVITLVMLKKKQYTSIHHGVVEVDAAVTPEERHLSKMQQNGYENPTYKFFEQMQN

Experiments:
[1] = target: T1, Ca2+-binding protein 45 kDa (CAB45) (human) (UniProt Q9BRK5); experiment: co-IP; IP/WB; H1299 cells (parental or GOLIM4-KO reconstituted) transfected with the indicated expression vectors, lysed after 48 hours in 1x RIPA buffer, antibodies at 4°C overnight, protein G agarose beads; RBFOX2 siRNA attenuated the GOLIM4-ATP2C1 interaction
T1 sequence: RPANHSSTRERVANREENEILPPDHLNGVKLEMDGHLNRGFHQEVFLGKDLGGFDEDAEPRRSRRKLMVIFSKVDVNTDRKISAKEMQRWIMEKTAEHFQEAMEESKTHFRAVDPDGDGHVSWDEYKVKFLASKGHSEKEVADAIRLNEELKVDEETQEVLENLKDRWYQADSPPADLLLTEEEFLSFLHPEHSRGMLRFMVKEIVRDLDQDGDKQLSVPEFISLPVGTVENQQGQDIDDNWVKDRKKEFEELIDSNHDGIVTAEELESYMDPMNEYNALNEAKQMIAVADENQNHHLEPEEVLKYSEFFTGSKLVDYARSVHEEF

[2] = target: T2, full-length GOLIM4 (reconstituted in GOLIM4-KO H1299 cells) (human) (UniProt O00461); experiment: as above
T2 sequence: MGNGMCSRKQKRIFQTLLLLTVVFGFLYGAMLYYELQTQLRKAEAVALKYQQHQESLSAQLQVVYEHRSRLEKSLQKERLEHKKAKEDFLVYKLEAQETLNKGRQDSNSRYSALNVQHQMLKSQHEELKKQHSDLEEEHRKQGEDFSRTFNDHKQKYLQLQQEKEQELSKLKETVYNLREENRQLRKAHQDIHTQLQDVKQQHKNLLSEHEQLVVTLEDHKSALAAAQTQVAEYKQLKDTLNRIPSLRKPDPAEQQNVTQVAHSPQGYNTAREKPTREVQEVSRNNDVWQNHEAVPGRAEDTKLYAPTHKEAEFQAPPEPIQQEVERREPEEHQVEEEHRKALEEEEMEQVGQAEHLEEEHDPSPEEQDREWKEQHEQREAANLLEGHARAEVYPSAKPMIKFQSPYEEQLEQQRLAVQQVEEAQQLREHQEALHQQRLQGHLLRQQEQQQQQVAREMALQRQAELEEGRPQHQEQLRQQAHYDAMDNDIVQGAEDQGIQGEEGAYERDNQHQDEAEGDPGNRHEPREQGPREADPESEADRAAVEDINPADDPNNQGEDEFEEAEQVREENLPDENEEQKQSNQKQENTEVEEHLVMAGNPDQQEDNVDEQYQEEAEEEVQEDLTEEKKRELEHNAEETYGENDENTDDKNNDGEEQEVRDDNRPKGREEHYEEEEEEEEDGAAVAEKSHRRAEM

[3] = target: T3, Golgi integral membrane protein 4 (GOLIM4) in H1299 cells (human) (UniProt O00461); experiment: as above
T3 sequence: T2 sequence

[4] = target: T3, Golgi integral membrane protein 4 (GOLIM4) in H1299 cells (human); experiment: co-IP; co-IP from Mn-treated cells
[5] = target: T1, Ca2+-binding protein 45 kDa (CAB45) (human); experiment: co-IP; IP/WB; H1299 cells (parental or GOLIM4-KO reconstituted) transfected with the indicated expression vectors, lysed after 48 hours in 1x RIPA buffer, antibodies at 4°C overnight, protein G agarose beads; RBFOX2 siRNA attenuated the GOLIM4-ATP2C1 interaction; remark: listed apart in the source

binding [2]: binds | binding [3]: binds
Molecule: ATPase secretory pathway Ca2+ transporting 1 (ATP2C1) (from UniProt P98194 1-919)

binding [3]: binds
Molecule: HA-GOLPH3 (from UniProt Q9H4A6 1-298)

binding [5]: binds
B2: γ glutamyl hydrolase (GGH) (protein, UniProt Q92820 25-318)
chain: RPHGDTAKKPIIGILMQKCRNKVMKNYGRYYIAASYVKYLESAGARVVPVRLDLTEKDYEILFKSINGILFPGGSVDLRRSDYAKVAKIFYNLSIQSFDDGDYFPVWGTCLGFEELSLLISGECLLTATDTVDVAMPLNFTGGQLHSRMFQNFPTELLLSLAVEPLTANFHKWSLSVKNFTMNEKLKKFFNVLTTNTDGKIEFISTMEGYKYPVYGVQWHPEKAPYEWKNLDGISHAPNAVKTAFYLAEFFVNEARKNNHHFKSESEEEKALIYQFSPIYTGNISSFQQCYIFD

Further lines, the molecule ahead of its results:

Molecule: amyloid precursor protein (APP) (from UniProt P05067 18-770)
binding [1]: binds

B1: GGA1 (protein, UniProt Q9UJY5 1-639)
chain: MEPAMEPETLEARINRATNPLNKELDWASINGFCEQLNEDFEGPPLATRLLAHKIQSPQEWEAIQALTVLETCMKSCGKRFHDEVGKFRFLNELIKVVSPKYLGSRTSEKVKNKILELLYSWTVGLPEEVKIAEAYQMLKKQGIVKSDPKLPDDTTFPLPPPRPKNVIFEDEEKSKMLARLLKSSHPEDLRAANKLIKEMVQEDQKRMEKISKRVNAIEEVNNNVKLLTEMVMSHSQGGAAAGSSEDLMKELYQRCERMRPTLFRLASDTEDNDEALAEILQANDNLTQVINLYKQLVRGEEVNGDATAGSIPGSTSALLDLSGLDLPPAGTTYPAMPTRPGEQASPEQPSASVSLLDDELMSLGLSDPTPPSGPSLDGTGWNSFQSSDATEPPAPALAQAPSMESRPPAQTSLPASSGLDDLDLLGKTLLQQSLPPESQQVRWEKQQPTPRLTLRDLQNKSSSCSSPSSSATSLLHTVSPEPPRPPQQPVPTELSLASITVPLESIKPSNILPVTVYDQHGFRILFHFARDPLPGRSDVLVVVVSMLSTAPQPIRNIVFQSAVPKVMKVKLQPPSGTELPAFNPIVHPSAITQVLLLANPQKEKVRLRYKLTFTMGDQTYNEMGDVDQFPPPETWGSL
binding [4]: binds
